Experimental data taken from paper PMC8201617.
No constants are given. Whether binding was seen depends on the method and setting. In cells and extracts the contact can be indirect. Some results given as binding are weak or reduced against the parent protein; the word gives no strength.

Chains of the proteins cited; added tags and fusions are not shown. Lines headed by an entry give the natural chain unless they say otherwise; changes in a name come on top. A line that says so, or that is headed by a name, gives the form on record, which may keep a tag or linker. Residues count along the entry.
UniProt P00519, residues 127-217: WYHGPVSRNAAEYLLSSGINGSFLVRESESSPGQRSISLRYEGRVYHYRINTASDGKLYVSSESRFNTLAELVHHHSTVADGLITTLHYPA
wild-type RUNX2 [RUNX2 (WT)] (Q13950-2, form named): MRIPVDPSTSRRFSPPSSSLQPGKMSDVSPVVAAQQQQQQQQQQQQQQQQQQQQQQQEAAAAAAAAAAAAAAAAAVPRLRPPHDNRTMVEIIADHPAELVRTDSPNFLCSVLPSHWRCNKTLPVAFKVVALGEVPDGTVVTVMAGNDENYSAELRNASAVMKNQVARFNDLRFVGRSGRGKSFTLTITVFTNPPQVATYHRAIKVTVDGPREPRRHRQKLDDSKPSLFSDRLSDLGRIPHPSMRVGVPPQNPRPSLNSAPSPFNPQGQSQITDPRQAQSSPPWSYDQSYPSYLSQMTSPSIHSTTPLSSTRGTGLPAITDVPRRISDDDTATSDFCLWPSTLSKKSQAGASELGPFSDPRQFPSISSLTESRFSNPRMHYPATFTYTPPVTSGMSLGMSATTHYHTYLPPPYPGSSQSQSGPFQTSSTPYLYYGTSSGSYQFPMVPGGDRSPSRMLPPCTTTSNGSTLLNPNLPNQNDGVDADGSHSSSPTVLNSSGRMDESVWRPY

Biological target: GFP-ABL (SH2), truncated form of the ABL-SH2 domain (UniProt P00519)
Assay: co-IP; HEK293T cells co-transfected with RUNX2 with or without GFP-ABL (SH2); GFP-ABL (SH2) immune complexes probed with anti-RUNX2 or anti-GFP; NP-40 or RIPA lysis buffer, 4 °C, Dynabeads Protein A or G

## wild-type RUNX2 [RUNX2 (WT)] (from UniProt Q13950-2 1-507)
  binding: binds
